Source: PubChem BioAssay AID1259405 (NCATS, 2018)
The whole screen tested about 50,000 reagents; shown is a random part of them. About 4,000 of them (8%) count as active. 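Mouse siRNA library applied to hamster cells; one well for each siRNA.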 The numbers tell different reagents against one gene apart. No sequences are given here.

Test: 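Mouse-designed siRNAs used to find CHO productivity engineering targets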 (primary screen)
Cell system: Chinese hamster CHO-K1 ovary cells with stable secreted eGFP expression
Reagents: single siRNA against mouse genes, 0.8 pmol siRNA per well (2 µl of 400 nM stock)
Duration: 3 days
Read-out: 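Per-well intracellular GFP measured by laser scanning cytometry, plus viability from ATP luminescence, each relative to plate median of non-targeting control wells, in %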
Scale: GFP, % of control: higher = more GFP per well, higher productivity; viability (ATP), % of control: higher = more viable cells (more ATP)
Call rule: 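a knock-down is called active if GFP reaches 120% or more of non-targeting control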

no.	gene knocked down	reagent	GFP, % of control	viability (ATP), % of control	outcome
1	Mras (GeneID 17532)	1	37.5	34.2	inactive
2	Mras (GeneID 17532)	2	100	90.4	inactive
3	Mras (GeneID 17532)	3	68.1	88.5	inactive
4	Xcr1 (GeneID 23832)	1	26.4	32.1	inactive
5	Xcr1 (GeneID 23832)	2	84.5	98.1	inactive
6	Xcr1 (GeneID 23832)	3	66.8	70.1	inactive
7	Gad2 (GeneID 14417)	1	53.5	75.5	inactive
8	Gad2 (GeneID 14417)	2	53.2	70.1	inactive
9	Gad2 (GeneID 14417)	3	81.9	70.7	inactive
10	A330070K13Rik (GeneID 381673)	1	46.2	34.1	inactive
11	A330070K13Rik (GeneID 381673)	2	36.7	30	inactive
12	A330070K13Rik (GeneID 381673)	3	70.8	85.5	inactive
13	Ppp1r15a (GeneID 17872)	1	72.3	97.4	inactive
14	Ppp1r15a (GeneID 17872)	2	86.4	65.5	inactive
15	Homer1 (GeneID 26556)	1	137	77.8	active
16	Homer1 (GeneID 26556)	2	94.2	86.9	inactive
17	Homer1 (GeneID 26556)	3	84.4	84.5	inactive
18	P3h1 (GeneID 56401)	1	84.5	93.5	inactive
19	P3h1 (GeneID 56401)	2	108	90.3	inactive
20	P3h1 (GeneID 56401)	3	95.8	71.2	inactive
21	Tmie (GeneID 20776)	1	96.9	67.4	inactive
22	Tmie (GeneID 20776)	2	85.3	78	inactive
23	Tmie (GeneID 20776)	3	155	126	active
24	Tut1 (GeneID 70044)	1	90.1	93.5	inactive
25	Tut1 (GeneID 70044)	2	70.5	90.8	inactive
26	Tut1 (GeneID 70044)	3	75.3	90.9	inactive
27	Or4a81 (GeneID 258468)	1	71.6	43.2	inactive
28	Or4a81 (GeneID 258468)	2	48.2	60	inactive
29	Or4a81 (GeneID 258468)	3	93.8	82.7	inactive
30	Esyt1 (GeneID 23943)	1	110	97.5	inactive
31	Esyt1 (GeneID 23943)	2	105	83.4	inactive
32	Rnpep (GeneID 215615)	1	167	99.3	active
33	Rnpep (GeneID 215615)	2	70.8	56.7	inactive
34	Rnpep (GeneID 215615)	3	47.7	61.9	inactive
35	Ears2 (GeneID 67417)	1	76.8	74.8	inactive
36	Ears2 (GeneID 67417)	2	86.8	70.9	inactive
37	Ears2 (GeneID 67417)	3	181	61.9	active
38	Hgsnat (GeneID 52120)	1	83.3	81.8	inactive
39	Hgsnat (GeneID 52120)	2	62.1	83.6	inactive
40	Hgsnat (GeneID 52120)	3	43.9	56.6	inactive
41	Or8g20 (GeneID 18343)	1	35.6	46.5	inactive
42	Or8g20 (GeneID 18343)	2	75.5	65.2	inactive
43	Or8g20 (GeneID 18343)	3	77.8	117	inactive
44	Sucnr1 (GeneID 84112)	1	140	93.3	active
45	Sucnr1 (GeneID 84112)	2	47.7	74.1	inactive
46	Sucnr1 (GeneID 84112)	3	74.9	67.6	inactive
47	Prkcq (GeneID 18761)	1	97.8	80.6	inactive
48	Prkcq (GeneID 18761)	2	101	74.4	inactive
49	Prkcq (GeneID 18761)	3	149	113	active
50	Prkci (GeneID 18759)	1	72.3	62.2	inactive
51	Prkci (GeneID 18759)	2	68.1	80.5	inactive
52	Prkci (GeneID 18759)	3	90.2	78.3	inactive
53	Or4c11 (GeneID 258896)	1	57.9	64.1	inactive
54	Or4c11 (GeneID 258896)	2	71.1	79.4	inactive
55	Or4c11 (GeneID 258896)	3	48	81.4	inactive
56	Ciz1 (GeneID 68379)	1	83.7	99.8	inactive
57	Ciz1 (GeneID 68379)	2	82.2	67	inactive
58	Ciz1 (GeneID 68379)	3	97.7	117	inactive

Hits, among the entries above:
gene knocked down	reagent	GFP, % of control	viability (ATP), % of control	outcome
Homer1 (GeneID 26556)	1	137	77.8	active
Tmie (GeneID 20776)	3	155	126	active
Rnpep (GeneID 215615)	1	167	99.3	active
Ears2 (GeneID 67417)	3	181	61.9	active
Sucnr1 (GeneID 84112)	1	140	93.3	active
Prkcq (GeneID 18761)	3	149	113	active
